Data taken from the supplement of paper PMC10849652.
The list shows a part of the results.

By UniProt entry, the sequences of proteins in these tests, tags left out. Where a name states a change or a piece, a line headed by the entry shows the natural chain unless it says otherwise.
UniProt Q92759: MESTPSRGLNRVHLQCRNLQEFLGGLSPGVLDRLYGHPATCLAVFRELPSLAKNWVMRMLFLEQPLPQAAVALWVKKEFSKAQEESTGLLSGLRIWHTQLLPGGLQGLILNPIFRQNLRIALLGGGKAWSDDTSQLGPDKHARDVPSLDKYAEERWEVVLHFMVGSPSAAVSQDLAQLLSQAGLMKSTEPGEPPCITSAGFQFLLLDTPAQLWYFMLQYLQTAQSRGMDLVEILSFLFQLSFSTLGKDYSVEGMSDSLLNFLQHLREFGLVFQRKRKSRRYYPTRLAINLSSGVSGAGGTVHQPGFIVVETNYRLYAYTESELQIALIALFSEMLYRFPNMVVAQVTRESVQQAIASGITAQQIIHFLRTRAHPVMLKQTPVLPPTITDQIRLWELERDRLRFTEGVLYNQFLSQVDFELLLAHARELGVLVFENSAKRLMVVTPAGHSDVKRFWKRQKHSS
UniProt P08263: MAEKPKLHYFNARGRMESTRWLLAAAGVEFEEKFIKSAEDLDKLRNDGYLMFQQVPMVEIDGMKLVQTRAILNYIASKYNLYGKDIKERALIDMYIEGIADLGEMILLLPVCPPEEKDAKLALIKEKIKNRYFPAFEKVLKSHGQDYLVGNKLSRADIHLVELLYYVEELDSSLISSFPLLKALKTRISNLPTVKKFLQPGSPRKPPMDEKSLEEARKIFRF
UniProt Q8WVB3: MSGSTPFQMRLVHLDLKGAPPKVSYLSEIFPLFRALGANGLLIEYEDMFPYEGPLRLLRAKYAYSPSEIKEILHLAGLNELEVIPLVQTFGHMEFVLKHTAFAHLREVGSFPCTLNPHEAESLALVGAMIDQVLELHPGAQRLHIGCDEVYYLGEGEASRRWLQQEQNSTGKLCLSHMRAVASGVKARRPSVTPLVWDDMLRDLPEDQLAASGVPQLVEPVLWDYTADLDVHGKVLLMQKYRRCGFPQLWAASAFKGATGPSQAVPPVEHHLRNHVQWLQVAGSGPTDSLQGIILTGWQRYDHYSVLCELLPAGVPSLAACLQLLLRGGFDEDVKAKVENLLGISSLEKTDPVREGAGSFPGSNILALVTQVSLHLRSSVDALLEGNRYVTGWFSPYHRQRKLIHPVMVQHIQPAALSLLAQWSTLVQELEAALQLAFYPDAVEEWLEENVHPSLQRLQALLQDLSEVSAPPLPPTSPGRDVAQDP
UniProt P32780: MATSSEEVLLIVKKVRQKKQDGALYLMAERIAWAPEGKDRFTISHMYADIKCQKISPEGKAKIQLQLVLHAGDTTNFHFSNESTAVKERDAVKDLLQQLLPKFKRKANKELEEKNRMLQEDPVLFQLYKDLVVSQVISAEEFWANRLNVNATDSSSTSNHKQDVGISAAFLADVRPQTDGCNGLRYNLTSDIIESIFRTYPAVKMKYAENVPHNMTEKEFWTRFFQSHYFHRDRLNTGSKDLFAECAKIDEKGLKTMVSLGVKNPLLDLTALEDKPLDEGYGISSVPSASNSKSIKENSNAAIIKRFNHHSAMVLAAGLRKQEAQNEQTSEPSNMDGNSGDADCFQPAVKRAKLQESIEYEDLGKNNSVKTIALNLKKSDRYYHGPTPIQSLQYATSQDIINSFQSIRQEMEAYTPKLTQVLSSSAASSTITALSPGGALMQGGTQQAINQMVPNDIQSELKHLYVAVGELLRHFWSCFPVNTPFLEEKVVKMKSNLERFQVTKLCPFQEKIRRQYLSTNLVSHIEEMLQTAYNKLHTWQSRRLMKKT
UniProt Q8WUI4: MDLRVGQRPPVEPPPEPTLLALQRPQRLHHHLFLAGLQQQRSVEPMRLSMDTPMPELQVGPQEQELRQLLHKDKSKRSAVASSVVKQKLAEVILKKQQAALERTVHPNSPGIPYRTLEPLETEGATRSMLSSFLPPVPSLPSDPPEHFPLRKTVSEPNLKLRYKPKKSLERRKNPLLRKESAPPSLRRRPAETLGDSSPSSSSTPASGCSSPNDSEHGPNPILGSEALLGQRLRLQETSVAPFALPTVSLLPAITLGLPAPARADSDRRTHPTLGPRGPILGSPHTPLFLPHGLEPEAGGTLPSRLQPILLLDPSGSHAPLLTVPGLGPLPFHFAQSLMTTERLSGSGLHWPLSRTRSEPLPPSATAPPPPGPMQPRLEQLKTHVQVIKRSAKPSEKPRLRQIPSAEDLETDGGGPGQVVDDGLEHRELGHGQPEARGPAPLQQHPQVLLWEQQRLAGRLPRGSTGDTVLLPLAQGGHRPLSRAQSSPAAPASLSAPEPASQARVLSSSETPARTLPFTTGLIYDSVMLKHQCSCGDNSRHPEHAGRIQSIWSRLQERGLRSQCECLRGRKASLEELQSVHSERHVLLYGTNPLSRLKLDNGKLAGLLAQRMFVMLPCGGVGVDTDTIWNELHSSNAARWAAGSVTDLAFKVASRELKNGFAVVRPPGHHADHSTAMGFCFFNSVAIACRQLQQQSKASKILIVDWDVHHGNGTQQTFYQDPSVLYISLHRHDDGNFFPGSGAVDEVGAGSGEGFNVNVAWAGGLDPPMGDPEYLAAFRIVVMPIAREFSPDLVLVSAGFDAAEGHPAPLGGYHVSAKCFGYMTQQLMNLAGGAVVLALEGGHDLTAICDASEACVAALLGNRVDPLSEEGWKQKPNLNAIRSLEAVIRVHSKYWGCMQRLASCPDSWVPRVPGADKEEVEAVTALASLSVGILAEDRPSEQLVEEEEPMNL
UniProt Q8N3Z3: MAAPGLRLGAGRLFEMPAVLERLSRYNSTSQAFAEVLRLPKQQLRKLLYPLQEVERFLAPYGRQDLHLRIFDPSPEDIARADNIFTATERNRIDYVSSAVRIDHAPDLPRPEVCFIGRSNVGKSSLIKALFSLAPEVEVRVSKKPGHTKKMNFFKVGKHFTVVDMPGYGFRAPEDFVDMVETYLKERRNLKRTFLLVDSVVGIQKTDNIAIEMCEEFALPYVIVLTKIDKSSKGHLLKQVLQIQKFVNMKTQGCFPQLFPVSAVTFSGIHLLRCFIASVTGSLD
UniProt Q969S8: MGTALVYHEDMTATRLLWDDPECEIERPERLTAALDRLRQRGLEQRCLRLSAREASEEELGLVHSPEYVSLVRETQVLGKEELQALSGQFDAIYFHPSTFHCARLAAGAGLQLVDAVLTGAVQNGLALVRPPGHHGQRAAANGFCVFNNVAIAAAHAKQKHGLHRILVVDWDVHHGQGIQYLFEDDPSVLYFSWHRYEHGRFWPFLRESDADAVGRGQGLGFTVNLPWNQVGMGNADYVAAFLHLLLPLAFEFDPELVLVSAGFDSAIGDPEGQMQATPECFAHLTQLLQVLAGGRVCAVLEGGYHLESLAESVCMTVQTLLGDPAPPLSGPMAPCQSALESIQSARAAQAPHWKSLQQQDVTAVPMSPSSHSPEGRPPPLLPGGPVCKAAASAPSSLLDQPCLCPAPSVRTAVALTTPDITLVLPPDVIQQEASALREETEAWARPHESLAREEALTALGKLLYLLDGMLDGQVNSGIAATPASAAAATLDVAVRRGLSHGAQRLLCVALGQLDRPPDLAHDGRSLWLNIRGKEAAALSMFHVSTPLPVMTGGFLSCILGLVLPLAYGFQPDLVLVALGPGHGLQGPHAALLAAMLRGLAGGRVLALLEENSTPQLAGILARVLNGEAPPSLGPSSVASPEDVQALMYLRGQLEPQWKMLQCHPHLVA
UniProt Q15011: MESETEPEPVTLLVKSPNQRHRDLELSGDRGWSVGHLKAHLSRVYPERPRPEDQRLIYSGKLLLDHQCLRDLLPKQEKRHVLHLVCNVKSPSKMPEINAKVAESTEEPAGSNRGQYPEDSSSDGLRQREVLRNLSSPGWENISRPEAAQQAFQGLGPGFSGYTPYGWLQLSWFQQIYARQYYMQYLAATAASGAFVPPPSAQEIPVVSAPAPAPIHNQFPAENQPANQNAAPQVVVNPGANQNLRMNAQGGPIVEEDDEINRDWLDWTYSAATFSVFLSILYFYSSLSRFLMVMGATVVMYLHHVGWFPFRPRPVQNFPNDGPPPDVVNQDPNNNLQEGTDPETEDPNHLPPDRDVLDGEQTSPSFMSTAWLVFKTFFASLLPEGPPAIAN
UniProt Q9NRZ9: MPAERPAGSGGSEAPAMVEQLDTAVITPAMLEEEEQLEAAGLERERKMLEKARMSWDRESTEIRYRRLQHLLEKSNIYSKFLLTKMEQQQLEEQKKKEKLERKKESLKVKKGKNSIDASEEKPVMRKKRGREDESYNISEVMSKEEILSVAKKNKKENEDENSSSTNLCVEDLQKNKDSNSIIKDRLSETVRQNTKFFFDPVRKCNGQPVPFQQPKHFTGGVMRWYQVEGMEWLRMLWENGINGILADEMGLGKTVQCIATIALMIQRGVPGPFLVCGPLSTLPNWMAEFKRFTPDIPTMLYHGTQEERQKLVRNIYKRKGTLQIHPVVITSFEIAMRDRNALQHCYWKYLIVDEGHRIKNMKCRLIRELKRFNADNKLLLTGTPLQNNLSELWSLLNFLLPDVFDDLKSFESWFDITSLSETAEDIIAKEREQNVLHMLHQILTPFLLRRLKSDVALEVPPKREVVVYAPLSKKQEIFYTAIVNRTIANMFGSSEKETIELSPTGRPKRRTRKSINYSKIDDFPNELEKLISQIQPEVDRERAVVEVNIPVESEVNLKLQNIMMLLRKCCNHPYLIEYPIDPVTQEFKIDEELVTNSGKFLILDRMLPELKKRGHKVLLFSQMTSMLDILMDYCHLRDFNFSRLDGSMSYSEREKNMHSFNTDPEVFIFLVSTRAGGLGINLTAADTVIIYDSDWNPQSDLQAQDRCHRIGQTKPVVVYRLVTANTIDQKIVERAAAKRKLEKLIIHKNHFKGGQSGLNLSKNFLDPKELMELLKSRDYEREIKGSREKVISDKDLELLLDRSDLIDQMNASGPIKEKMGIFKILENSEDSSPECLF
UniProt Q6Y1H2: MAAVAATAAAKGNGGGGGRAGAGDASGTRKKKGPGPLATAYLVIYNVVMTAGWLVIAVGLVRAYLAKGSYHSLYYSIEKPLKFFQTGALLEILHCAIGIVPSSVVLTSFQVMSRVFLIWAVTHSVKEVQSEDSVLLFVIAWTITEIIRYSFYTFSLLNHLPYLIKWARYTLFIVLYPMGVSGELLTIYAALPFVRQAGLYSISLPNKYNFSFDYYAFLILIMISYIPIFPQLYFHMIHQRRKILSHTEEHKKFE
UniProt O95479: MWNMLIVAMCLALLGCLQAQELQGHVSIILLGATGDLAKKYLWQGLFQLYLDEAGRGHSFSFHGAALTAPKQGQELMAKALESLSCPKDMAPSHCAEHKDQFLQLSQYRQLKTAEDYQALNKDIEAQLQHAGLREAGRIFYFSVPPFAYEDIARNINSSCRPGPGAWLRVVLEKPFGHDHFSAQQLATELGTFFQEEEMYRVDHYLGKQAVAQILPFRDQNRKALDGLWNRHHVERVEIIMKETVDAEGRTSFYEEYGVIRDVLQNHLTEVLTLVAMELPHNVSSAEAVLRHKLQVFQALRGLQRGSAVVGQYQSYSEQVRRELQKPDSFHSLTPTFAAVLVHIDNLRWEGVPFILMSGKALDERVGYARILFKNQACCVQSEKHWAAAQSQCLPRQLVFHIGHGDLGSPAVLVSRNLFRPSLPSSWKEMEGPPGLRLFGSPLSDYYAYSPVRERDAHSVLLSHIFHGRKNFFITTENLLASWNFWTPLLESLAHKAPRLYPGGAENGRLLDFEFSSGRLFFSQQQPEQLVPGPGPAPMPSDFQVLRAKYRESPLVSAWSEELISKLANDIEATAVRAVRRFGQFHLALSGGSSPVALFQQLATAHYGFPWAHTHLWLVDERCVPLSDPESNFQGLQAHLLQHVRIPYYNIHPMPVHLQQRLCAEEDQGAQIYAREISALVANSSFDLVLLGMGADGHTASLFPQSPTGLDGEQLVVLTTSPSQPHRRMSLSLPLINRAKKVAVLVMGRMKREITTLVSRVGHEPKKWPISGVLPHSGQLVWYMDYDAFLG
UniProt P68871: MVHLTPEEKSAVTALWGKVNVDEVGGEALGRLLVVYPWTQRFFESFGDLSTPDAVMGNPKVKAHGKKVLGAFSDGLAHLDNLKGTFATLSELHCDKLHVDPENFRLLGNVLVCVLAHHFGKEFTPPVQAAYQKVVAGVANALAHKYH
UniProt Q93099: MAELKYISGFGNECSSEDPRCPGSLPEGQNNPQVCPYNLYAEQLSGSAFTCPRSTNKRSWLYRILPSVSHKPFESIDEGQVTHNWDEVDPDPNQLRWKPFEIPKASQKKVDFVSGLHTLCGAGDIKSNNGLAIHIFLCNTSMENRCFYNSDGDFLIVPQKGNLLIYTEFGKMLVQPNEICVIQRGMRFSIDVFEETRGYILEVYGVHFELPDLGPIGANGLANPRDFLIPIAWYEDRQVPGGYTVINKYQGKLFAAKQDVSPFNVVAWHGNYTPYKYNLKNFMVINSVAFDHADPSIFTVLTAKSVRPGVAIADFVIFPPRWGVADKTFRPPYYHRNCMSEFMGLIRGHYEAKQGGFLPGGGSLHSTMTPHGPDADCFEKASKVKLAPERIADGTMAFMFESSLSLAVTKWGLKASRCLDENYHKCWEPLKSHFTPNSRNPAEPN

Key:
Assay in all cases: log2 fold change, soluble protein after heating vs DMSO (PISA); higher = thermal stabilisation; K562 cells, 10 uM, 30 min; active = over 0.2 and 3.5 SD of the protein, either way, in both replicates (recomputed)
[1] = compound: COC1=CC=C(C=C1)CN2C=CC3=C2C=C(C=C3)C(=O)NO
Summary of the method: (§1)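 K562 cells at 2×10^6 cells/mL were exposed to 10 μM compound for 30 min, then aliquots were heated for 3 min across 48°C-58°C, pooled, and extracted in PBS containing 0.5% NP-40 at 4°C. The supernatant after 21,000xg for 90 min was taken as soluble protein and measured by TMTpro 16plex LC-MS/MS with channel sums equalised. Thermal stability is reported relative to control samples, with values from duplicates. Fold changes are given on a log2 scale.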

pictilisib = compound: CS(=O)(=O)N1CCN(Cc2cc3nc(-c4cccc5[nH]ncc45)nc(N4CCOCC4)c3s2)CC1 [pictilisib]
Summary of the method: as §1

alisertib = compound: COc1cc(Nc2ncc3c(n2)-c2ccc(Cl)cc2C(c2c(F)cccc2OC)=NC3)ccc1C(=O)O [alisertib]
Summary of the method: as §1

gefitinib = compound: COc1cc2ncnc(Nc3ccc(F)c(Cl)c3)c2cc1OCCCN1CCOCC1 [gefitinib]
Summary of the method: as §1

[2] = compound: COc1cccc2cc(-c3nc([C@H]4CC[C@H](C(=O)O)CC4)n4ncnc(N)c34)[nH]c12
Summary of the method: as §1

zotarolimus = compound: CO[C@H]1C[C@@H]2CC[C@@H](C)[C@@](O)(O2)C(=O)C(=O)N2CCCC[C@H]2C(=O)O[C@H]([C@H](C)C[C@@H]2CC[C@H](n3cnnn3)[C@H](OC)C2)CC(=O)[C@H](C)/C=C(\C)[C@@H](O)[C@@H](OC)C(=O)[C@H](C)C[C@H](C)/C=C/C=C/C=C/1C [zotarolimus]
Summary of the method: as §1

idasanutlin = compound: COc1cc(C(=O)O)ccc1NC(=O)[C@@H]1N[C@@H](CC(C)(C)C)[C@](C#N)(c2ccc(Cl)cc2F)[C@H]1c1cccc(Cl)c1F [idasanutlin]
Summary of the method: as §1

filanesib = compound: CON(C)C(=O)N1N=C(c2cc(F)ccc2F)S[C@@]1(CCCN)c1ccccc1 [filanesib]
Summary of the method: as §1

[3] = compound: COc1cc2nc(-c3cc(F)ccc3O)nc(N[C@@H]3CNC[C@H]3C(C)(C)O)c2cc1OC
Summary of the method: as §1

lapatinib = compound: CS(=O)(=O)CCNCc1ccc(-c2ccc3ncnc(Nc4ccc(OCc5cccc(F)c5)c(Cl)c4)c3c2)o1 [lapatinib]
Summary of the method: as §1

Measured: log2 fold change

HEXIM2 (UniProt Q96MH2)
inactive: [1] -0.017 | pictilisib -0.082

HBZ, A0A494C057
inactive: alisertib 1.67 | gefitinib 0.151 | [2] 0.009

HES1 (UniProt Q14469)
inactive: [1] 0.022 | zotarolimus -0.146 | idasanutlin 0.017 | alisertib 0.163 | [2] -0.106 | pictilisib -0.051

GTF2H4 (UniProt Q92759)
inactive: filanesib 0.122 | zotarolimus 0.084 | idasanutlin 0.009 | alisertib -0.153 | [3] 0.193 | gefitinib 0.096 | [2] 0.182 | lapatinib -0.018 | pictilisib -0.094

GYG2 (UniProt O15488)
inactive: alisertib 0.202 | [2] 0.085

HBD (UniProt E9PEW8)
inactive: alisertib 1.75 | gefitinib -0.032 | [2] -0.086 | pictilisib -0.018

HGFAC (UniProt Q04756)
inactive: [1] -0.195 | alisertib 0.069 | [3] -0.078 | gefitinib 0.098 | [2] 0.413 | lapatinib 0.075

GSTA1 (UniProt P08263)
inactive: filanesib -0.159 | gefitinib 0.096

GSTM3 (UniProt P21266)
inactive: filanesib -0.07 | zotarolimus 0.03 | idasanutlin 0.056 | alisertib 0.09 | [3] 0.163 | gefitinib 0.047 | [2] 0.007 | lapatinib -0.182 | pictilisib 0.261

HEXD isoform 2 (UniProt Q8WVB3)
inactive: filanesib -0.23 | [3] 0.047 | lapatinib -0.129 | pictilisib 0.017

HFM1 (UniProt A2PYH4)
inactive: [3] 0.089 | lapatinib 0.029

GTF2H1 (UniProt P32780)
inactive: [1] -0.008 | zotarolimus 0.082 | alisertib -0.089 | [2] 0.112 | pictilisib 0.147

HDAC7 isoform 5 (UniProt Q8WUI4)
inactive: filanesib 0.121 | zotarolimus 0.054 | idasanutlin 0.024 | alisertib -0.075 | [3] 0.075 | gefitinib -0.015 | [2] 0.046 | lapatinib 0.071 | pictilisib -0.004

GTPBP8 (UniProt Q8N3Z3)
inactive: [1] 0.047 | [3] 0.248 | gefitinib -0.024 | lapatinib -0.256

HAUS2 (UniProt Q9NVX0)
inactive: zotarolimus 0.057 | idasanutlin -0.034 | alisertib -0.182 | [3] -0.259 | [2] -0.049 | lapatinib 0.307

GSTT1 (UniProt P30711)
inactive: [1] 0.014 | zotarolimus 0.07 | idasanutlin 0 | alisertib -0.118 | [3] -0.015 | gefitinib 0.023 | [2] 0.029 | lapatinib 0.003 | pictilisib 0.027

HDAC10 (UniProt Q969S8)
inactive: zotarolimus -0.022 | idasanutlin -0.157 | alisertib -0.264 | [3] 0.049 | gefitinib 0.168 | [2] 0.065 | lapatinib 0.044 | pictilisib 0.084

HAL (UniProt P42357)
inactive: filanesib -0.054 | zotarolimus -0.193 | idasanutlin 0.164 | alisertib 1.03 | [3] 0.071 | gefitinib 0.21 | [2] -0.004 | lapatinib -0.091

H3-3A (UniProt P84243)
inactive: filanesib -0.187 | zotarolimus 0.009 | alisertib 0.098 | [3] 0.179 | gefitinib 0.035 | [2] -0.062 | lapatinib -0.042

HERPUD1 (UniProt Q15011)
inactive: alisertib -0.082 | [3] -0.13 | [2] 0.154 | lapatinib -0.11

HELLS (UniProt Q9NRZ9)
inactive: pictilisib 0.176

GZF1 (UniProt Q9H116)
inactive: filanesib -0.039 | idasanutlin 0.401

HAUS8 (UniProt Q9BT25)
inactive: zotarolimus 0.051 | idasanutlin 0.171 | alisertib -0.151 | [3] -0.18 | gefitinib -0.042 | [2] 0.11 | lapatinib 0.042 | pictilisib -0.184

HGF (UniProt P14210)
inactive: filanesib 0.032 | zotarolimus -0.138 | alisertib 0.031 | gefitinib 0.065 | [2] 0.186

HACD2 (UniProt Q6Y1H2)
inactive: zotarolimus 0.035 | alisertib 0.109 | [3] -0.023 | [2] 0.077 | lapatinib 0.092

Fetched one by one from above, 3 records:
HAUS8 (UniProt Q9BT25)
inactive: zotarolimus 0.051 | idasanutlin 0.171 | alisertib -0.151 | [3] -0.18 | gefitinib -0.042 | [2] 0.11 | lapatinib 0.042 | pictilisib -0.184

GTF2H1 (UniProt P32780)
inactive: [1] -0.008 | zotarolimus 0.082 | alisertib -0.089 | [2] 0.112 | pictilisib 0.147

HBD (UniProt E9PEW8)
inactive: alisertib 1.75 | gefitinib -0.032 | [2] -0.086 | pictilisib -0.018

Later entries.

GTPBP4 (UniProt Q9BZE4)
inactive: filanesib 0.245 | zotarolimus 0.238 | idasanutlin 0.628 | alisertib 0.076 | gefitinib 0.091 | [2] -0.421 | pictilisib 0.047

H6PD (UniProt O95479)
inactive: filanesib 0.016 | zotarolimus -0.074 | idasanutlin 0.07 | alisertib 0.136 | [3] -0.126 | gefitinib 0.014 | [2] -0.078 | lapatinib -0.082 | pictilisib 0.005

HBB (UniProt P68871)
inactive: idasanutlin -0.168 | alisertib -0.292 | [2] 0.336

HGD (UniProt Q93099)
inactive: filanesib 0.226

GTF3C3 (UniProt Q9Y5Q9)
inactive: [1] -0.003 | alisertib 0.066 | [3] 0.135 | gefitinib -0.011 | [2] 0.083 | lapatinib -0.045 | pictilisib 0.045

GSPT1 isoform 2 (UniProt P15170)
inactive: gefitinib -0.099

HECTD4 (UniProt Q9Y4D8)
inactive: [1] -0.196 | alisertib 0.259 | [2] 0.087

HAUS3 (UniProt Q68CZ6)
inactive: [1] -0.059 | zotarolimus 0.021 | idasanutlin 0.201 | alisertib -0.412 | [3] 0.008 | [2] -0.341 | lapatinib -0.039

HAUS4 (UniProt Q9H6D7)
inactive: filanesib 0.245 | zotarolimus 0.05 | idasanutlin 0.126 | alisertib -0.103 | [3] 0.024 | gefitinib -0.086 | [2] 0.323 | lapatinib -0.038 | pictilisib -0.162
